{
  "sequences": {"note": "Chains of the proteins cited; added tags and fusions are not shown.", "UniProt P49715, whole entry K298Q/K302Q": "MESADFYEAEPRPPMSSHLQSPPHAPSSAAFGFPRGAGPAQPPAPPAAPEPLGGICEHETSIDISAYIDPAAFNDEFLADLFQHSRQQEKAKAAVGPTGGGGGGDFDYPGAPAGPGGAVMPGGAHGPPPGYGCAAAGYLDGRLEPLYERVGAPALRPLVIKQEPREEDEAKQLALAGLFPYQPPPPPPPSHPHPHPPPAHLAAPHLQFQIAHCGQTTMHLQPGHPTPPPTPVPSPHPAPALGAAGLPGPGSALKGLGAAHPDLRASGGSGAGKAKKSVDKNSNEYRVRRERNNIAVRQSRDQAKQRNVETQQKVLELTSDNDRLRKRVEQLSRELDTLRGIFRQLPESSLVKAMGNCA", "UniProt P49715, whole entry K298R/K302R": "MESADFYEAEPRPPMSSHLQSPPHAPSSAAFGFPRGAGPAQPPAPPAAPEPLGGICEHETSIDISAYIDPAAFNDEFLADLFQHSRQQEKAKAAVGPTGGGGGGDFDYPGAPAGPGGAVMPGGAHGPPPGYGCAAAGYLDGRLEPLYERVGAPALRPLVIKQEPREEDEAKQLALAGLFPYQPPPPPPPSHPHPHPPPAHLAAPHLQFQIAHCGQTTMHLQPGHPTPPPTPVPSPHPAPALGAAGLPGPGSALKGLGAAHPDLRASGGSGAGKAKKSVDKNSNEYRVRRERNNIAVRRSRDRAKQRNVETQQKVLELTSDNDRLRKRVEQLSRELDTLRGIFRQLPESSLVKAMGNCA"},
  "source": "paper PMC4814574",
  "assay_in_all_cases": "EMSA supershift",
  "key": {"[1]": {"molecular_target": "C/EBPα K2Q (no ER tag) K298Q,K302Q (human) (UniProt P49715)", "conditions": "0.1 and 0.5 ug nuclear extract, minimal binding (main text: loss of DNA binding); 10 mM HEPES-KOH pH 7.9, 50 mM KCl, 2.5 mM MgCl2, 1 mM DTT, 10% glycerol, 1 ug BSA, 0.5 ug poly(dI-dC), 25 ul, on ice 20 min; 6% gel, 0.5x TBE, 4 °C; protein in an extract; residues 1-358"}, "[2]": {"molecular_target": "C/EBPα K2Q-ER K298Q,K302Q (human) (UniProt P49715)", "conditions": "K562 cells treated with 5 uM β-estradiol 45 min; 10 mM HEPES-KOH pH 7.9, 50 mM KCl, 2.5 mM MgCl2, 1 mM DTT, 10% glycerol, 1 ug BSA, 0.5 ug poly(dI-dC), 25 ul, on ice 20 min; 6% gel, 0.5x TBE, 4 °C; protein in an extract; residues 1-358; protein details: C-terminal ER ligand-binding domain fusion"}, "[3]": {"molecular_target": "C/EBPα K2R-ER K298R,K302R (human) (UniProt P49715)", "conditions": "K562 cells treated with 5 uM β-estradiol 45 min; 10 mM HEPES-KOH pH 7.9, 50 mM KCl, 2.5 mM MgCl2, 1 mM DTT, 10% glycerol, 1 ug BSA, 0.5 ug poly(dI-dC), 25 ul, on ice 20 min; 6% gel, 0.5x TBE, 4 °C; protein in an extract; residues 1-358; protein details: C-terminal ER ligand-binding domain fusion"}, "[4]": {"molecular_target": "C/EBPα K2R (no ER tag) K298R,K302R (human) (UniProt P49715)", "conditions": "0.1 and 0.5 ug nuclear extract; 10 mM HEPES-KOH pH 7.9, 50 mM KCl, 2.5 mM MgCl2, 1 mM DTT, 10% glycerol, 1 ug BSA, 0.5 ug poly(dI-dC), 25 ul, on ice 20 min; 6% gel, 0.5x TBE, 4 °C; protein in an extract; residues 1-358"}},
  "note": "Construct, isoform or probe ends are uncertain for at least one entry. Where cells or extracts were used, other partners may take part. For some of these results: Weaker means in comparison with the reference protein, sequence or condition of that experiment.",
  "data": [
    {"sequence": "CTAGGGCTTGCGCAATCTATATTCG / CGAATATAGATTGCGCAAGCCCTA [G-CSF receptor promoter C/EBP site oligonucleotide]", "values": [
      {"measurement": "binding result", "setting": "[1]", "result": "binds more weakly"},
      {"measurement": "binding result", "setting": "[2]", "result": "binds more weakly"},
      {"measurement": "binding result", "setting": "[3]", "result": "binds"},
      {"measurement": "binding result", "setting": "[4]", "result": "binds"}
    ]}
  ]
}
